Measured values: publication PMC5473643, “A semisynthetic Atg3 reveals that acetylation promotes Atg3 membrane binding and Atg8 lipidation” (Nature Communications, 2017)
Where a chain is given by its changes, count along the chain named. No constants are given. Whether binding was seen depends on the method and setting. Some entries that bind do so weakly or less than the wild type. Where a sequence is shown, tags or fusion partners need not be part of it.

B1: WT Atg3 (bacterially expressed and purified) (enzyme, UniProt P40344 1-310)
chain: MIRSTLSSWREYLTPITHKSTFLTTGQITPEEFVQAGDYLCHMFPTWKWNEESSDISYRDFLPKNKQFLIIRKVPCDKRAEQCVEVEGPDVIMKGFAEDGDEDDVLEYIGSETEHVQSTPAGGTKDSSIDDIDELIQDMEIKEEDENDDTEEFNAKGGLAKDMAQERYYDLYIAYSTSYRVPKMYIVGFNSNGSPLSPEQMFEDISADYRTKTATIEKLPFYKNSVLSVSIHPCKHANVMKILLDKVRVVRQRRRKELQEEQELDGVGDWEDLQDDIDDSLRVDQYLIVFLKFITSVTPSIQHDYTMEGW
B2: semi-synthetic Atg3 K19ac-K48ac (enzyme, UniProt P40344 1-310)
chain: B1 chain with Q27C, S54C
modifications: acetyl-lysine at K19 and K48
B3: Atg8 (bacterially expressed and purified) (natural protein, yeast, UniProt P38182 1-117, looked up)
chain: MKSTFKSEYPFEKRKAESERIADRFKNRIPVICEKAEKSDIPEIDKRKYLVPADLTVGQFVYVIRKRIMLPPEKAIFIFVNDTLPPTAALMSAIYQEHKDKDGFLYVTYSGENTFGR
notes: Atg8 of yeast; 'the region coding ; Atg8' inserted into pGEX-6P-1; In the MST experiment this Atg8 was labelled on primary amines with Dye NT-647 NHS; also called recombinant Atg8; purified Atg8; source: E. coli BL21 (DE3), purified (glutathione-Sepharose 4B, PreScission protease, Mono Q, Superdex 200)

Key:
[1] = target: T1, His6-Atg8 (bacterially expressed and purified) (yeast) (UniProt P38182); assay: pull-down; purified His6-Atg8 incubated with Atg3 WT or semi-synthetic Atg3 K19ac-K48ac in Tris-HCl buffer, 25 °C, 1 h; Ni-NTA resin; washed with 0.1% Tween-20; eluted with 250 mM imidazole; Coomassie staining; both purified
T1 sequence: B3 chain

[2] = target: T2, His6-Atg3 WT (bacterially expressed) (Saccharomyces cerevisiae) (UniProt P40344); assay: pull-down; His6-Atg3 WT or semi-synthetic His6-Atg3 K19ac-K48ac incubated with bacterially expressed and purified Atg8; bound proteins detected by Coomassie staining; both purified
T2 sequence: B1 chain

[3] = target: T3, semi-synthetic His6-Atg3 K19ac-K48ac (Saccharomyces cerevisiae) (UniProt P40344); assay: as above
T3 sequence (chain, acetyl-lysine at K19 and K48): B1 chain with Q27C, S54C

Binder | binding [1] | binding [2] | binding [3]
B1 | binds |  | 
B2 | binds |  | 
B3 |  | binds | binds
